Data as given in the supplement of paper PMC10849652.
The other results are listed elsewhere or left out.

Chains of the proteins cited; added tags and fusions are not shown. Lines headed by an entry give the natural chain unless they say otherwise; changes in a name come on top.
UniProt O75342: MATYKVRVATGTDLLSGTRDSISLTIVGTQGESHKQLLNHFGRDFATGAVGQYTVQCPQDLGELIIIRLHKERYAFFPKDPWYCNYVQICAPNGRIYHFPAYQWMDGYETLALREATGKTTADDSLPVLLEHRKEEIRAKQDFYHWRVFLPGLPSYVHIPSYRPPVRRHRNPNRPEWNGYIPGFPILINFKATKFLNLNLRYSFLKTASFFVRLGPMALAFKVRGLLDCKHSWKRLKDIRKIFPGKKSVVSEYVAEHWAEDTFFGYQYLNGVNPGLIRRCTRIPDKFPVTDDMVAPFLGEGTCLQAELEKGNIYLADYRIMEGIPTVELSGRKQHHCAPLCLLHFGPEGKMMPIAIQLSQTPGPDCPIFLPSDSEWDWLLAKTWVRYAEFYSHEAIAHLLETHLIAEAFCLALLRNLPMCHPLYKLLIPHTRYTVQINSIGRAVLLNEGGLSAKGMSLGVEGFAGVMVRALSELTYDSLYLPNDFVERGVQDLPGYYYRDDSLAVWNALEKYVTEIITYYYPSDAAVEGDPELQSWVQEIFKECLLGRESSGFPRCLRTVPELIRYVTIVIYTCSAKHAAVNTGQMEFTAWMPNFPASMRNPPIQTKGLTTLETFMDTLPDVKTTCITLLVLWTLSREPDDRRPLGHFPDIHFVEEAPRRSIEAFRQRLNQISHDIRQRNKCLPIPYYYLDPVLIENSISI
UniProt Q8NB46: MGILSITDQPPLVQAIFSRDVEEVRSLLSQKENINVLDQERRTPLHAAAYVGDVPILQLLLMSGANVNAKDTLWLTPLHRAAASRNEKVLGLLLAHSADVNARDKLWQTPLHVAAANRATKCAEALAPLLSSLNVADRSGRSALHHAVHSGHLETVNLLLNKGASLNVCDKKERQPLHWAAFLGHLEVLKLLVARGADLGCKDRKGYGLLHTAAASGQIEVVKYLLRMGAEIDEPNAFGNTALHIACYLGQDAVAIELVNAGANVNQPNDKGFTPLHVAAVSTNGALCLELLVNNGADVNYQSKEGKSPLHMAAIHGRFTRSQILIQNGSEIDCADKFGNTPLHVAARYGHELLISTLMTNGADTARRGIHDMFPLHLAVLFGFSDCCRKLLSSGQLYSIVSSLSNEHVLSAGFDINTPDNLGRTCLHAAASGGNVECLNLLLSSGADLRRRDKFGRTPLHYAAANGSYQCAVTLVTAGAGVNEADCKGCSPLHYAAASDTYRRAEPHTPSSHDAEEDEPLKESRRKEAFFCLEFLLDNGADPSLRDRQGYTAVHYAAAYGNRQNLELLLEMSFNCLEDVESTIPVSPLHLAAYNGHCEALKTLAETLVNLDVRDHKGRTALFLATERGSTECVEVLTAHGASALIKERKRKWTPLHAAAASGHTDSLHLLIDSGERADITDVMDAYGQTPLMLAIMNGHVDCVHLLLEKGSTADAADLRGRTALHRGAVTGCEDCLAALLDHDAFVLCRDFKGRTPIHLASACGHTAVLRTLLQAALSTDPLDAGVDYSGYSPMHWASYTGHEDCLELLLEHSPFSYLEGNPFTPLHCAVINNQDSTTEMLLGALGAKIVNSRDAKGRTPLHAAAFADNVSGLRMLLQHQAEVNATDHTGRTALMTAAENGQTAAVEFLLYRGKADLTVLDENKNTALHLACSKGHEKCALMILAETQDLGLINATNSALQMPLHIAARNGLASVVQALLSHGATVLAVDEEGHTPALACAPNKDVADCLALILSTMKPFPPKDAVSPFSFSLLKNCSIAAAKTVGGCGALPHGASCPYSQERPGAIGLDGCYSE
UniProt Q6DCA0: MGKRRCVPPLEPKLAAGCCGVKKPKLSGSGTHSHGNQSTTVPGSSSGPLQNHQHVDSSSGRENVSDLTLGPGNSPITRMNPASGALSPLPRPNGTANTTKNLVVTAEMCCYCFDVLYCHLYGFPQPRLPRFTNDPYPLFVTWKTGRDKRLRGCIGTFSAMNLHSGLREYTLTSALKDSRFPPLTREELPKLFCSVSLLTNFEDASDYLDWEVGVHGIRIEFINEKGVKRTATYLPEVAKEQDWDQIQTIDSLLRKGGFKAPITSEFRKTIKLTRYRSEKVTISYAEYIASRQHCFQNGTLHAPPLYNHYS
UniProt Q5I7T1: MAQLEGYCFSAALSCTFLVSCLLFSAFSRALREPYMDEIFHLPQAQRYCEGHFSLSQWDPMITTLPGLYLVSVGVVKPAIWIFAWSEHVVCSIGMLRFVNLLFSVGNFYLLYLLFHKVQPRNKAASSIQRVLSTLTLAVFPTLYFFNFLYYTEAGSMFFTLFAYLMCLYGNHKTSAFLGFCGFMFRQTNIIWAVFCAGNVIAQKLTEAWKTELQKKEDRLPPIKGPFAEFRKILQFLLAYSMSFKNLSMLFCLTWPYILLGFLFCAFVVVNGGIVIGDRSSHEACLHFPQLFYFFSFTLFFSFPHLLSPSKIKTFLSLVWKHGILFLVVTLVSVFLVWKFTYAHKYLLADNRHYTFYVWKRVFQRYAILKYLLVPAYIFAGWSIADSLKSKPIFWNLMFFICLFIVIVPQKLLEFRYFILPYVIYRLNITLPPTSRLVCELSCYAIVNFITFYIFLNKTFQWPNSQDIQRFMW
UniProt Q8N6D5: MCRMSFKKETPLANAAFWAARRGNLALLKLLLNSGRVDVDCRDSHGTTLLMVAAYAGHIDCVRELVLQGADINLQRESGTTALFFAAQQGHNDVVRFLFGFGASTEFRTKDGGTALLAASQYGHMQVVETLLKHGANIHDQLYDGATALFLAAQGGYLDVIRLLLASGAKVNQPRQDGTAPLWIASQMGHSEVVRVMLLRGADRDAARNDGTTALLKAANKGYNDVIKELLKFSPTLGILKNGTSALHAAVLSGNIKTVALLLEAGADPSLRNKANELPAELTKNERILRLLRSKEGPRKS
UniProt Q3KRA9: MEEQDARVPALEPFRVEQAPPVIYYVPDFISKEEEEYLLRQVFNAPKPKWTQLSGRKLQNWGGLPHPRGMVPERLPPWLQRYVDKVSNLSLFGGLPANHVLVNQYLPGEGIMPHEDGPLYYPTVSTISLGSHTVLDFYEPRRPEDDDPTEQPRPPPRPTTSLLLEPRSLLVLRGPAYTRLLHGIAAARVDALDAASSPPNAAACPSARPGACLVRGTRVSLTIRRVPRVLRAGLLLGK
UniProt Q2TAA5: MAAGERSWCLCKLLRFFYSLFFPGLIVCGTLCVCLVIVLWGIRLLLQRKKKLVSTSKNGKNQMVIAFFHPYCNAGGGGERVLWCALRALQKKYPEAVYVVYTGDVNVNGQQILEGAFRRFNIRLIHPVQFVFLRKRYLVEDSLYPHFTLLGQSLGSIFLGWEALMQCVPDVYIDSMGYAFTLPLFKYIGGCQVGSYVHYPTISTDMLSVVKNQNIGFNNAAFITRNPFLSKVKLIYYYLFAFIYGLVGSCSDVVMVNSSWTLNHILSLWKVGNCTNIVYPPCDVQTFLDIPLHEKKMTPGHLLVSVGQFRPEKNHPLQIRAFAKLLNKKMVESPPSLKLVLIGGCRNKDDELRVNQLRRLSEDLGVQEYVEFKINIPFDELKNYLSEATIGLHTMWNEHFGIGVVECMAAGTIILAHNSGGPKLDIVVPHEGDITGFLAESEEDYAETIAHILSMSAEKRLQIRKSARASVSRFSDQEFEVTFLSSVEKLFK
UniProt P59780: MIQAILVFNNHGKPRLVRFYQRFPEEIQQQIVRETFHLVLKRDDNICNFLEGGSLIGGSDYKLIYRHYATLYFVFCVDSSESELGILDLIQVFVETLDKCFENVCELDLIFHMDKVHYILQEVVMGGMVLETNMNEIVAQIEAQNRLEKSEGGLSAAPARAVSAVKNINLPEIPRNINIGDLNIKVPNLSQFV
UniProt Q9UKV5, whole entry, looked up: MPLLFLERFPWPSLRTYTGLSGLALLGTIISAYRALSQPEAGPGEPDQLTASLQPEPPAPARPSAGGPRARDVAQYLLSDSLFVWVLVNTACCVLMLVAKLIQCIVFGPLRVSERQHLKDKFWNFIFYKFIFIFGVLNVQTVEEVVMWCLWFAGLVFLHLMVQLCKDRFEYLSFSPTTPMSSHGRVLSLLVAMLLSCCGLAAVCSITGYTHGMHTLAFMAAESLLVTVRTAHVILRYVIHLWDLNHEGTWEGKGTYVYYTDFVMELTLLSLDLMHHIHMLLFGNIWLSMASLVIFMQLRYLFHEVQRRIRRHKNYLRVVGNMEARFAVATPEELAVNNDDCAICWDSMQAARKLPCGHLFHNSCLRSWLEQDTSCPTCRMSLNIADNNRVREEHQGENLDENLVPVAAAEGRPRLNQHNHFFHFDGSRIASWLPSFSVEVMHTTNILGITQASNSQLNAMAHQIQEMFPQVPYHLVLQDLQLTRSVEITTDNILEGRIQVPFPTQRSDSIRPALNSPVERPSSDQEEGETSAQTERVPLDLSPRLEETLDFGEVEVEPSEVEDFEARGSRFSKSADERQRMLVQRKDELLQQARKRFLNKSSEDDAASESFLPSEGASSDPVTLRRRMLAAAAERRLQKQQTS
UniProt Q9NW15: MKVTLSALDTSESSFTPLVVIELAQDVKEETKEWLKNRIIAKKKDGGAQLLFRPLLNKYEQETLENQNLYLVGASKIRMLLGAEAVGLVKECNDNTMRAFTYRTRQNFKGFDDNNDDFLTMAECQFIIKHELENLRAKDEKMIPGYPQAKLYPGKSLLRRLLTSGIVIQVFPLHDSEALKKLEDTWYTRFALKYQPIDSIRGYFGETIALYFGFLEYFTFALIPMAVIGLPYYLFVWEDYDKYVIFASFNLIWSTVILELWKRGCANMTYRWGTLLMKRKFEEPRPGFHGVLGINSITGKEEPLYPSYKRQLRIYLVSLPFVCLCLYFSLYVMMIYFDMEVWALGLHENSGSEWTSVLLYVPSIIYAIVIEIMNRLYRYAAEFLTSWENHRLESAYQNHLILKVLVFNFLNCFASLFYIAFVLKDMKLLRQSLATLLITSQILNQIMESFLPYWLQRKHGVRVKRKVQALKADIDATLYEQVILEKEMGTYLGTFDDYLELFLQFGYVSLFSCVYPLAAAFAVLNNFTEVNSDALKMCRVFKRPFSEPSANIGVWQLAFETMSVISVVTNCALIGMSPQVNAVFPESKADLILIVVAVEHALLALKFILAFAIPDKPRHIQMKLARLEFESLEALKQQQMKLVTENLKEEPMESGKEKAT
UniProt Q86W74: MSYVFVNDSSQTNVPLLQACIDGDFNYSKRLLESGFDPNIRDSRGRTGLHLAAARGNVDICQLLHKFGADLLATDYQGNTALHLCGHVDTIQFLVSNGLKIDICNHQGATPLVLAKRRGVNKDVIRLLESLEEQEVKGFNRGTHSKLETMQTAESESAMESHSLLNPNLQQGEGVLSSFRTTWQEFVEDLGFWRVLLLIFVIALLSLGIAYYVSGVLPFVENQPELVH
UniProt Q96QP1: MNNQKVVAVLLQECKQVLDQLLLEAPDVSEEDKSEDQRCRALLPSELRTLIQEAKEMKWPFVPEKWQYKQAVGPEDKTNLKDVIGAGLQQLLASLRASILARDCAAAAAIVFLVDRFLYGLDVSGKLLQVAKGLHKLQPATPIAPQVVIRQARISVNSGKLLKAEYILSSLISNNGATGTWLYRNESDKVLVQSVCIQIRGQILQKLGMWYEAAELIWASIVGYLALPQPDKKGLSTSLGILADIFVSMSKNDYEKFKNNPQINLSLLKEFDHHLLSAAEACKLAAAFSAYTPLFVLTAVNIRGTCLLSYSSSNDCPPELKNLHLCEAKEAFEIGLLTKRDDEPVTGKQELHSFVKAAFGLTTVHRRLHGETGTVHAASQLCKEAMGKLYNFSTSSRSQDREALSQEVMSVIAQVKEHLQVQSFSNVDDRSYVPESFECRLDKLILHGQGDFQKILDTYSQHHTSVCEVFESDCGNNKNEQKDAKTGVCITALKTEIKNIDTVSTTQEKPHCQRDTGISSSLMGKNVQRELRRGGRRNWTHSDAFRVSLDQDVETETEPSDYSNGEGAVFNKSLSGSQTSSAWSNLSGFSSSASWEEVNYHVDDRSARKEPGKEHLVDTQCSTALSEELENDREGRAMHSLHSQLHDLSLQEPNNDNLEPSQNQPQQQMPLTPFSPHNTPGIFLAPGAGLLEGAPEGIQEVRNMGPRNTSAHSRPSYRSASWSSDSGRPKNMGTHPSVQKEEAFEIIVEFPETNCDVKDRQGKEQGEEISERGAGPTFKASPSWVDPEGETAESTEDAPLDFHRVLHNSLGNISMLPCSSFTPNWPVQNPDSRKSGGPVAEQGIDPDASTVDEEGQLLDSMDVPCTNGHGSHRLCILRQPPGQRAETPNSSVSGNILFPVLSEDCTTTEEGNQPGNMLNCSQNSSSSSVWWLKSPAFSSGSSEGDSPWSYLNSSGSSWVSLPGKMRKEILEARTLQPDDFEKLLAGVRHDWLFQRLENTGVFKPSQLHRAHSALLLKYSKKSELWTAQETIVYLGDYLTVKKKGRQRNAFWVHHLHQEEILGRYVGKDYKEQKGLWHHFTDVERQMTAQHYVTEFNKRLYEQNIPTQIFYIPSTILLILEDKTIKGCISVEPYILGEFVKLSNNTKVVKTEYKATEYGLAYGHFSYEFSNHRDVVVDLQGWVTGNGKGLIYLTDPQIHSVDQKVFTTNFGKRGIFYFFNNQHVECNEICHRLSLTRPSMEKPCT

Compound: C#Cc1cccc(Nc2ncnc3cc(OCCOC)c(OCCOC)cc23)c1 [erlotinib]
Assay: log2 fold change, soluble protein after heating vs DMSO (PISA); higher = thermal stabilisation; K562 lysate, 10 uM; active = over 0.2 and 3.5 SD of the protein, either way, in both replicates (recomputed)
Method in brief: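 K562 pellets were dounce-homogenised in PBS pH 7.4 containing 1 mM MgCl2, and the crude extract, at 1 mg/mL protein, was exposed to 10 μM compound for 30 min. Aliquots were heated for 3 min across 48°C-58°C, pooled, brought to 0.5% NP-40 at 4°C and spun at 21,000xg for 90 min, with the supernatant taken as soluble protein. TMTpro 16plex LC-MS/MS with equalised channel sums quantified that protein. Values are log-two fold changes in thermal stability relative to solvent controls, taken from duplicates.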

log2 fold change, inactive:
ALOX12B (UniProt O75342) -0.075, ANKHD1 isoform 2 (UniProt Q8IWZ3) 0.074, ALKBH1 (UniProt Q13686) 0.033, ANKRD52 (UniProt Q8NB46) 0.056, AMMECR1L (UniProt Q6DCA0) -0.159, ALG10B (UniProt Q5I7T1) 0.034, ANKRD29 (UniProt Q8N6D5) 0.01, ALKBH6 isoform 2 (UniProt Q3KRA9) 0.026, ALG11 (UniProt Q2TAA5) 0.074, AP3S2 (UniProt P59780) -0.025, AMBRA1 isoform 5 (UniProt Q9C0C7) -0.047, AKT1S1 isoform 3 (UniProt Q96B36) -0.107, ALDH18A1 (UniProt P54886) 0.029, ALDOA (UniProt H3BPS8) -0.097, ANGPTL4 (UniProt M0R3A2) 0.283, ANKH (UniProt Q9HCJ1) -0.102, AMFR (UniProt Q9UKV5) -0.037, ANO10 (UniProt Q9NW15) 0.015, AP1S3 isoform 4 (UniProt Q96PC3) -0.098, ANKRD44 isoform 2 (UniProt Q8N8A2) -0.034, ANKRD46 (UniProt Q86W74) -0.111, ALPK1 (UniProt Q96QP1) -0.083
